# Experimental data published in US20040248913A1, “(Pyridinyl and pyrimidyl) trienoic acid derivatives as retinoid x receptor modulators” (priority 2001, published 2004).
# Some results were stated once for a whole list of compounds, not compound by compound.
# Target: T1, RXRα:PPARγ heterodimer (Homo sapiens, UniProt P19793)
# T1 construct: expressed in transfected cells; host or cells: CV-1 cells
# T1 sequence (P19793 1-462): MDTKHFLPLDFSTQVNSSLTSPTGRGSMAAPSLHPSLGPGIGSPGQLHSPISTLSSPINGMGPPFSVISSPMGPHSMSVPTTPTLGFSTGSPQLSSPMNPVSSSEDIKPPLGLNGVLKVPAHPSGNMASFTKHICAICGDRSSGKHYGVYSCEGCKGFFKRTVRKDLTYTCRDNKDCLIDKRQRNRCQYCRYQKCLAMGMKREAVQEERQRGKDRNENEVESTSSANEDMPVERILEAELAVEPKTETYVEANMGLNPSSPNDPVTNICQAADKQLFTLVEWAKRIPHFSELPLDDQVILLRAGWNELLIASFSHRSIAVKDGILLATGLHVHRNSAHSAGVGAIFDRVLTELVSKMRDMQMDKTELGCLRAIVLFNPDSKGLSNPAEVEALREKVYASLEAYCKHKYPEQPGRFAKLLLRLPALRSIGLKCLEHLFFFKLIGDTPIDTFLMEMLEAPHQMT
# T1 sequence (P37231 1-505 partner): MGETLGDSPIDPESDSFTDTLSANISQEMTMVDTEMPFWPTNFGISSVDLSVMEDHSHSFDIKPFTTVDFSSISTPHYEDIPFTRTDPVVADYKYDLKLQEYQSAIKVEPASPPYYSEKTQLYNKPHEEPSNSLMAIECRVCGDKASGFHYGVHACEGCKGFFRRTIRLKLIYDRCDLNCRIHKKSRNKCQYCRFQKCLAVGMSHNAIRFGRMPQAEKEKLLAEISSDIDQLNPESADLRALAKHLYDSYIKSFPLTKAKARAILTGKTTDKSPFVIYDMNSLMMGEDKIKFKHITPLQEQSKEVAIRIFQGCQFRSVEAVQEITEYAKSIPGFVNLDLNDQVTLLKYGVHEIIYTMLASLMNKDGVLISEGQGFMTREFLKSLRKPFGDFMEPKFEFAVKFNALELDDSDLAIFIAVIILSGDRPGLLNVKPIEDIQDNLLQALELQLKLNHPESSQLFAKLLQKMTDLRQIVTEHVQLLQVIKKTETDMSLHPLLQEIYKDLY
# Assay: RXR:PPARγ heterodimer cotransfection assay in CV-1 cells
# Format: cell-based
# Excerpt: In the co-transfection assay, cloned cDNA for one or more IRs (e.g., human RARα, RXRα, or PPARγ), alone or in combination (i.e. for heterodimer assays) under the control of a constitutive promoter (e.g., the SV 40, RSV or CMV promoter) is introduced by transfection (a procedure to introduce exogenous genes into cells) into a background cell substantially devoid of endogenous IRs. These introduced gene(s) direct the recipient cells to make the IR protein(s) of interest. A further gene is also introduced (co-transfected) into the same cells in conjunction with the IR gene(s). This further gene, comprising the cDNA for a reporter protein, such as firefly luciferase (LUC), controlled by an appropriate hormone responsive promoter containing a hormone response element (HRE). This reporter plasmid functions as a reporter for the transcriptional-modulating activity of the target IR(s). Thus, the reporter acts as a surrogate for the products (mRNA then protein) normally expressed by a gene under control of the target receptor(s) and their native hormone(s).
# The compounds of the present invention were further tested for activity on RXR heterodimers with RARα, RARγ or PPARγ utilizing the cotransfection assay in CV-1 cells as described in Example 6A. The RXR:RAR heterodimer cotransfection assays utilized the following expression plasmids and reporter plasmid: pRShRARα (10 ng/well, Giguere et al., Nature, 330:624 (1987) the disclosure of which is herein incorporated by reference) or pRShRARγ (10 ng/well, Ishikawa et al., Mol. Endocrin., 4:837 (1990) the disclosure of which is herein incorporated by reference) with Δ-MTV-LUC (50 ng/well, Hollenberg and Evans, Cell, 55:899 (1988), the disclosure of which is herein incorporated by reference) containing an RARE which is referred to as two copies of the TRE-palindromic response element described in Umesono et al., Nature, 336:262 (1988), the disclosure of which is herein incorporated by reference. For the RSR:PPARγ heterodimer cotransfection assay, the RXRα receptor expression plasmid, pRShRXRα (10 ng/well), was cotrasfected with the PPARγ expression plasmid, pCMVhPPARγ (10 ng/well), and a reporter plasmid containing three copies of a PPARγ response element (pPREA3-tk-LUC, 50 ng/well; Mukherjee et al., Journ. Biol. Chem., 272:8071-8076 (1997) and references cited therein, the disclosures of which are herein incorporated by reference).
# Cotransfections were performed as described in Example 6A. […] Antagonist efficacy and IC50 values were determined as in Example 6A.
# Compounds of the present invention were also tested for the ability to synergize with an RAR or PPARγ agonist in the context of an RXR heterodimer. For these assays the compounds were added to the cells with a fixed concentration of TTNPB (1×10^−9 M) for RXR:RAR heterodimer assay or BRL 49633 (1×10^−7 M) for the RXR:PPARγ heterodimer assay. Efficacy of the compounds of the present invention in the agonist and synergy assays was calculated as the maximum response obtained over the range of the dose response curve relative to the maximum response obtained by the reference agonist. Antagonist efficacy was determined as a function (%) of maximal inhibition.
# Kliewer et al., Nature 358:771-774 (1992). To examine the effects of the compounds of the present invention on the transcriptional properties of the RXR:PPARγ, a heterodimer cotransfection assay as described above was employed.
smiles,measurement,value
"CCCOc1c(\C(C)=C/C=C/C(C)=C/C(=O)O)cc(C(C)C)nc1C(C)C [Example 2, 7-(2,6-Diisopropyl-3-propoxy-pyridin-4-yl)-3-methyl-octa-2(E),4(E),6(Z)-trienoic Acid]",RXR:PPARγ agonist activity alone (in words),agonist
same,RXR:PPARγ activity in combination with the PPARγ ligand (in words),synergistic activity
"CCOc1c(\C(C)=C/C=C/C(C)=C/C(=O)O)cc(C(C)C)nc1C(C)C [Example 3, 7-(2,6-Diisopropyl-3-ethoxy-pyridin-4-yl)-3-methyl-octa-2(E),4(E),6(Z)-trienoic acid]",RXR:PPARγ agonist activity alone (in words),agonist
same,RXR:PPARγ activity in combination with the PPARγ ligand (in words),synergistic activity
"C/C(=C/C=C/C(C)=C/C(=O)O)c1cc(C(C)C)nc(C(C)C)c1OCC(F)F [Example 4, 7-[3-(2,2-Difluoro-ethoxy)-2,6-diisopropyl-pyridin-4-yl]-3-methyl-octa-2(E),4(E),6(Z)-trienoic acid]",RXR:PPARγ agonist activity alone (in words),agonist
same,RXR:PPARγ activity in combination with the PPARγ ligand (in words),synergistic activity
"C/C(=C/C=C/C(C)=C/C(=O)O)c1cc(C(C)C)nc(C(C)C)c1OCC(F)(F)F [Example 5, 7-[2,6-Diisopropyl-3-(2,2,2-trifluoro-ethoxy)-pyridin-4-yl]-3-methyl-octa-2(E),4(E),6(Z)-trienoic acid]",RXR:PPARγ agonist activity alone (in words),agonist
same,RXR:PPARγ activity in combination with the PPARγ ligand (in words),synergistic activity
